Data from the supplement of paper PMC7580552.
Structures can show the parent of a compound that is named as a salt. The list shows a part of the results. Plates or batches differ in their baseline, so values are only roughly comparable.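 Biofilm, quantified by the absorbance of well-retained crystal violet, is assayed using the K-12 laboratory model grown unshaken in 96-well plates. Candidate specific biofilm inhibitors were drugs that sharply lowered staining yet reduced free-floating growth by less than 70%.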

Test system: Escherichia coli W3110
Experiment: biofilm formation (crystal violet staining) relative to untreated control; higher = more biofilm
Details: 10 µM; 20-24 h; 30 °C; TB

SMILES | biofilm formation [%]
CN(C)CCn1nnnc1SCC1=C(C(=O)O)N2C(=O)[C@@H](NC(=O)Cc3csc(N)n3)[C@H]2SC1 [Cefotiam hydrochloride] | 12
CC(=O)N[C@@H](CS)C(=O)O [Acetylcysteine] | 100
CC(=O)O[C@H]1C[C@@]2(C)[C@@H](C[C@@H](O)[C@H]3[C@@]4(C)CC[C@@H](O)[C@@H](C)[C@@H]4CC[C@@]32C)/C1=C(\CCC=C(C)C)C(=O)O [Fusidic acid sodium salt] | 115
CCN(CC)CCOC(=O)c1ccc(N)cc1 [Procaine hydrochloride] | 98
CC[C@H](C)C(=O)O[C@H]1C[C@@H](C)C=C2C=C[C@H](C)[C@H](CC[C@@H]3C[C@@H](O)CC(=O)O3)[C@H]21 [Lovastatin] | 69
Cc1c(C)c2c(c(C)c1O)CCC(C)(C(=O)O)O2 (centres undefined) [Trolox] | 91
CCCCNc1cc(C(=O)O)cc(S(N)(=O)=O)c1Oc1ccccc1 [Bumetanide] | 43
CNC(=O)c1c(I)c(C(=O)NCC(=O)Nc2c(I)c(C(=O)O)c(I)c(C(=O)NCCO)c2I)c(I)c(N(C)C(C)=O)c1I [Ioxaglic acid] | 74
CC(=O)Oc1ccccc1C(=O)Oc1ccccc1C(=O)O [Acetylsalicylsalicylic acid] | 50
CC(C)n1c(/C=C/C(O)CC(O)CC(=O)O)c(-c2ccc(F)cc2)c2ccccc21 (centres undefined) [Fluvastatin sodium salt] | 71
NC(=O)OCC(COC(N)=O)c1ccccc1 [Felbamate] | 74
C[C@H]1NC(=O)NC1=O [Methylhydantoin-5-(D)] | 61
Cc1ccnc(NS(=O)(=O)c2ccc(N)cc2)n1 [Sulfamerazine] | 35
N=C(N)NCc1cccc(I)c1 [Iobenguane sulfate] | 89
Nc1ccc(S(=O)(=O)Nc2cnc3ccccc3n2)cc1 [Sulfaquinoxaline sodium salt] | 53
CNC[C@H](O)[C@@H](O)[C@H](O)[C@H](O)CO [Meglumine] | 70
NCCCC(O)(P(=O)(O)O)P(=O)(O)O [Alendronate sodium] | 95
NS(=O)(=O)c1cc(Cl)c(Cl)c(S(N)(=O)=O)c1 [Dichlorphenamide] | 82
CCCCCNC(=N)N/N=C/c1c[nH]c2ccc(OC)cc12 [Tegaserod maleate] | 41
CCN1CCCC(OC(=O)C(c2ccccc2)c2ccccc2)C1 (centres undefined) [Piperidolate hydrochloride] | 65
CN(C)CCCSC(=N)N [Dimaprit dihydrochloride] | 72
C[C@H](Cc1cc2c(c(C(N)=O)c1)N(CCCO)CC2)NCCOc1ccccc1OCC(F)(F)F [Silodosin] | 83
Cc1onc(-c2c(F)cccc2Cl)c1C(=O)N[C@@H]1C(=O)N2[C@@H]1SC(C)(C)[C@@H]2C(=O)O [Flucloxacillin sodium] | 81

Entries shown so far that have four or more nitrogen atoms (five):
SMILES | biofilm formation [%]
CN(C)CCn1nnnc1SCC1=C(C(=O)O)N2C(=O)[C@@H](NC(=O)Cc3csc(N)n3)[C@H]2SC1 [Cefotiam hydrochloride] | 12
CNC(=O)c1c(I)c(C(=O)NCC(=O)Nc2c(I)c(C(=O)O)c(I)c(C(=O)NCCO)c2I)c(I)c(N(C)C(C)=O)c1I [Ioxaglic acid] | 74
Cc1ccnc(NS(=O)(=O)c2ccc(N)cc2)n1 [Sulfamerazine] | 35
Nc1ccc(S(=O)(=O)Nc2cnc3ccccc3n2)cc1 [Sulfaquinoxaline sodium salt] | 53
CCCCCNC(=N)N/N=C/c1c[nH]c2ccc(OC)cc12 [Tegaserod maleate] | 41

Next part:

SMILES | biofilm formation [%]
O=C(NCCN1CCOCC1)c1ccc(Cl)cc1 [Moclobemide] | 51
CC(=O)CCCCn1c(=O)c2c(ncn2C)n(C)c1=O [Pentoxifylline] | 63
CN1C(=O)OC(C)(C)C1=O [Trimethadione] | 76
CN(C/C=C/c1ccccc1)Cc1cccc2ccccc12 [Naftifine hydrochloride] | 64
OCCN1CCN(CCCN2c3ccccc3C=Cc3ccccc32)CC1 [Opipramol dihydrochloride] | 59
CC(C)NC[C@H](O)COc1cccc2ccccc12 [(S)-propranolol hydrochloride] | 88
C[C@@H](O)[C@H]1C(=O)N2C(C(=O)O)=C(S[C@@H]3CN[C@H](C(=O)N(C)C)C3)[C@H](C)[C@H]12 [Meropenem] | 11
CC(=O)O[C@H]1C[C@@H]2CC[C@@H]3[C@H](CC[C@@]4(C)[C@H]3C[C@H]([N+]3(C)CCCCC3)[C@@H]4OC(C)=O)[C@@]2(C)C[C@@H]1N1CCCCC1 [Vecuronium bromide] | 68
C[C@]12C=CC(=O)C=C1CC[C@H]1[C@@H]3C[C@@H](O)[C@](O)(C(=O)CO)[C@@]3(C)C[C@H](O)[C@@]12F [Triamcinolone] | 67
CC1(C)O[C@@H]2C[C@H]3[C@@H]4CCC5=CC(=O)CC[C@]5(C)[C@@]4(F)[C@@H](O)C[C@]3(C)[C@]2(C(=O)CCl)O1 [Halcinonide] | 70
CCN(CC)C(=O)/C(C#N)=C/c1cc(O)c(O)c([N+](=O)[O-])c1 [Entacapone] | 85
OC(c1cc(C(F)(F)F)nc2c(C(F)(F)F)cccc12)C1CCCCN1 (centres undefined) [Mefloquine hydrochloride] | 46
CNCCCC12CCC(c3ccccc31)c1ccccc12 [Maprotiline hydrochloride] | 61
C[C@@H]1C[C@H]2[C@@H]3C[C@H](F)C4=CC(=O)C=C[C@]4(C)[C@@]3(Cl)[C@@H](O)C[C@]2(C)[C@H]1C(=O)COC(=O)C(C)(C)C [Clocortolone pivalate] | 103
Nc1nc2c(ncn2COCCO)c(=O)[nH]1 [Acyclovir] | 54
CCCCCN(CCCCC)C(=O)C(CCC(=O)O)NC(=O)c1ccc(Cl)c(Cl)c1 (centres undefined) [Lorglumide sodium salt] | 42
CC(C)(C)NC(=O)[C@@H]1C[C@@H]2CCCC[C@@H]2CN1C[C@@H](O)[C@H](Cc1ccccc1)NC(=O)[C@H](CC(N)=O)NC(=O)c1ccc2ccccc2n1 [Saquinavir mesylate] | 106
COc1ncnc(NS(=O)(=O)c2ccc(N)cc2)c1OC [Sulfadoxine] | 39
CC(=O)OCC(=O)[C@@]1(O)[C@H](C)C[C@H]2[C@@H]3CCC4=CC(=O)C=C[C@]4(C)[C@@]3(F)[C@@H](O)C[C@@]21C [Dexamethasone acetate] | 85
COc1c(N2C[C@@H]3CCCN[C@@H]3C2)c(F)cc2c(=O)c(C(=O)O)cn(C3CC3)c12 [Moxifloxacin] | 23
COc1ccc(C(=O)c2ccccc2)c(O)c1 [Oxybenzone] | 55
COc1ccc(C(=O)CC(=O)c2ccc(C(C)(C)C)cc2)cc1 [Avobenzone] | 68
CCOC(=O)C1=C(C)NC(C)=C(C(=O)OCC)C1c1ccccc1/C=C/C(=O)OC(C)(C)C [Lacidipine] | 83

SMILES | biofilm formation [%]
CCOc1cc(CC(=O)N[C@@H](CC(C)C)c2ccccc2N2CCCCC2)ccc1C(=O)O [Repaglinide] | 66
C#C[C@]1(O)CC[C@H]2[C@@H]3CCc4cc(O)ccc4[C@H]3CC[C@@]21C [Ethinylestradiol] | 77
CCCCN(CCCC)CCC(O)c1cc2c(Cl)cc(Cl)cc2c2cc(C(F)(F)F)ccc12 (centres undefined) [Halofantrine hydrochloride] | 78
CC(C(=O)O)c1cccc(C(=O)c2ccccc2)c1 (centres undefined) [Ketoprofen] | 76
CCCC1O[C@@H]2C[C@H]3[C@@H]4CCC5=CC(=O)C=C[C@]5(C)[C@H]4[C@@H](O)C[C@]3(C)[C@]2(C(=O)CO)O1 (some centres undefined) [Budesonide] | 87
CC1(C)S[C@@H]2[C@H](NC(=O)[C@H](C(=O)O)c3ccsc3)C(=O)N2[C@H]1C(=O)O [Ticarcillin sodium] | 54
Cc1cc(NS(=O)(=O)c2ccc(N)cc2)no1 [Sulfamethoxazole] | 28
CN[C@@H]1[C@@H](O)[C@@H](O[C@@H]2[C@@H](O)[C@H](O[C@H]3OC(CN)=CC[C@H]3N)[C@@H](N)C[C@H]2N)OC[C@]1(C)O [Sisomicin sulfate] | 61
O=C1CN(/N=C/c2ccc(-c3ccc([N+](=O)[O-])cc3)o2)C(=O)N1 [Dantrolene sodium salt] | 82
CCOC(=O)n1ccn(C)c1=S [Carbimazole] | 72
C[C@H](N)[C@H](O)c1cccc(O)c1 [Metaraminol bitartrate] | 70
CCN(CC)CCOC(=O)C(Cc1cccc2ccccc12)CC1CCCO1 (centres undefined) [Nafronyl oxalate] | 81
Cc1ccccc1OCC(O)CO (centres undefined) [Mephenesin] | 78
O=C1CN(/N=C/c2ccc([N+](=O)[O-])o2)C(=O)N1 [Nitrofurantoin] | 61
Nc1c2c(nc3ccccc13)CCCC2 [Tacrine hydrochloride] | 72
CCN(CC)C(=S)SSC(=S)N(CC)CC [Disulfiram] | 51
C/C(=C(\CCOP(=O)(O)O)SC(=O)c1ccccc1)N(C=O)Cc1cnc(C)nc1N [Benfotiamine] | 70
CC1(C)O[C@@H]2C[C@H]3[C@@H]4CCC5=CC(=O)C=C[C@]5(C)[C@H]4[C@@H](O)C[C@]3(C)[C@]2(C(=O)CO)O1 [Desonide] | 98
CC[C@H]1OC(=O)C[C@@H](O)[C@H](C)[C@@H](O[C@@H]2O[C@H](C)[C@@H](O[C@H]3C[C@@](C)(O)[C@@H](O)[C@H](C)O3)[C@H](N(C)C)[C@H]2O)[C@@H](CC=O)C[C@@H](C)C(=O)/C=C/C(C)=C/[C@@H]1CO[C@@H]1O[C@H](C)[C@@H](O)[C@@H](OC)[C@H]1OC [Tylosin] | 85
O=C(CCCCCCC(=O)Nc1ccccc1)NO [Vorinostat] | 83
COC(=O)C1=C(C)NC(C)=C(C(=O)OC2CCCN(Cc3ccccc3)C2)C1c1cccc([N+](=O)[O-])c1 (centres undefined) [Benidipine hydrochloride] | 56
CCNC(=O)CCC/C=C\C[C@@H]1[C@@H](/C=C/[C@@H](O)CCc2ccccc2)[C@H](O)C[C@@H]1O [Bimatoprost] | 92
C[C@]12C[C@H](O)[C@H]3[C@@H](CCC4=CC(=O)CC[C@@]43C)[C@@H]1CC[C@@H]2C(=O)CO [Corticosterone] | 81
